Source: publication PMC11651612
These are yes or no findings as the source states them, for the method shown. In cells and extracts the contact can be indirect. These calls come from enrichment with a bait or labelling near it, and not all partners need be listed.

Tests used:
[1] = biological target: T1, Cdc10-mCherry (C. neoformans) (UniProt J9VMT9); experiment: affinity purification with mass spectrometry
T1 sequence: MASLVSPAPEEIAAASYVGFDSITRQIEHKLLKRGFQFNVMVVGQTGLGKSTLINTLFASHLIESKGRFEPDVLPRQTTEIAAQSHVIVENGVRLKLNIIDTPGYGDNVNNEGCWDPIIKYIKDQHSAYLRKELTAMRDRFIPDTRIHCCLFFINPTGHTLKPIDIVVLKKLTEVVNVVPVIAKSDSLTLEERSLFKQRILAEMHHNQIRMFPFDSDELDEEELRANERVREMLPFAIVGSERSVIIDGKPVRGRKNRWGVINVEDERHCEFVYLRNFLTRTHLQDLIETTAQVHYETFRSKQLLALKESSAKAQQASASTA

[2] = biological target: T2, Cdc3-mCherry (C. neoformans) (UniProt J9VUF2); experiment: affinity purification with mass spectrometry
T2 sequence: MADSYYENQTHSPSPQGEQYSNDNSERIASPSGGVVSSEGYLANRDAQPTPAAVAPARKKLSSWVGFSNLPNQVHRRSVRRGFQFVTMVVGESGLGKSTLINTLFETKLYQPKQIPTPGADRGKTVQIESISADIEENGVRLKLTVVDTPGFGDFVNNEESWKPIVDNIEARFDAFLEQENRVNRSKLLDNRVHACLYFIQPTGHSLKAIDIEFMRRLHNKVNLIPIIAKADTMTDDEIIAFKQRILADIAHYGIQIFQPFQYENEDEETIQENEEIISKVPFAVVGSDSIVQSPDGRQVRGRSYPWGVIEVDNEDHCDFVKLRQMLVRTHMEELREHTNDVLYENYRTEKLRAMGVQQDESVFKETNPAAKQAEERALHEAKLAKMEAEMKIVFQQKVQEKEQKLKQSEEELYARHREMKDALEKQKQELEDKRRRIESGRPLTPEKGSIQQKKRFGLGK

B1: Zinc finger protein (CNAG_00292) (protein, UniProt J9VGH9 1-524)
chain: MSSDKTNLFPTLSEVADRTGKGESAGLEQEGDDRQMQEIESLCMRCHENGTTRLLLTSIPYFKEIVVSSFRCDHCGHRDTEIQSAGEIQPKGVTYTVHLLTRADLDRQIVKSNWATITIPDIQLTIPPGRGQINTVEGIIRDTVRDLNISQPVRRVMDPETGKKIDELLEKLRASIDMEEEDEDDGGVGIDDDEKPVHHEPSNASSKEEKPFVPFSVIVDDPSGNSYFQFKGSQSDPQWNMRAYNRTFDQNVTLGLVARPEDISEEQPEGVPIVAADHKLSSVEEFESKRNKNAINRDDGTVVPDEIYSFPATCSSCGHQLETLMQQVNIPYFQNIIIMSSNCYACGYRDNEVKSGGSIAPKGKRITLKVEDEEDLSRDMLKSDTAGLSIPEIDLVLQPGTLGGRFTTLEGLLNEIYTELSTKVFRAGDSTTAGIGQADSNVGEDEAKFGDFLKGLKECMSAQRQFTLILDDPVSNSYLQNLYAPDPDPNMQIEVYDRTFEQNEELGLNDMVVEGYNKEAEGTA
[1]
  binding: binds

B2: Mannose-6-phosphate isomerase, variant (protein, UniProt T2BNL9 1-142)
chain: MPPPAHKMAHFPRITSSLPSEHSEFRTVMWTGESSQLVLMTIPVGGEIGEEIHHVDQHLVFTSGTAKAIVAGEEKEIKAGDLVIVPQGTKHNFVNTGPTPLCLFTVYAPAEHAETTVNRTKEEGDKLEEDGKDEPPEWAVRK
[1]
  binding: binds

B3: Uncharacterized protein (CNAG_03815) (protein, UniProt J9VIS6 1-380)
chain: MPSVLSPNNPVSRSYAPLADETNLSVTTSAPVKTIPYNGSVMYNGSNGSVMYGQPALSPMVAASSSLGLDDMQKAGMSMRNDSEETLSPSASRKGKERAKTPTFDSGDLGEVRRGSYKGKERVRDIEEGRIYSEEQLASENSRYPPTNEAEEEERRIQEHLTRLAARDMARRRAARESKQLPSPSTASASPRSSYSVSSAARRPFSFFSSSSKRGSLLGLDSSWIGKKSADVGELPMSRPRSHDEQYMNPYEAQPSFSPAPKASDSPITTSIRSPFADPSPPLPAAIDRSAYRRASVVSVASSGSPHTAYRSPLVSPSSPTDETGFAYGGPTWRGGQAVQQRENVARKGPDRWWHALCAWGDDLDGGHDVPEAGRTNPFE
[1]
  binding: binds

B4: Metal ion binding (protein, UniProt J9VPR8 1-1441)
chain: MPTSPALSPKSNPSSSSLPPTDSMPTVYSPPSSHHFPPPRHSPLSQTFSSDRQSHSRRVSLATPDISGARPSSCMSSRVNDQVQKSKGLGLQDRLRKEVDGVVKRRSGGVLGRGYILKTDHFPTGRAMDLDLNIQGAPNFRAPDEESLNVFGVAQPTSTGLKSILTLLGCQPAFLRKPNRRGSAAANTPPLSLGERRLSRTESPIRSTNLERFNSVDEREPQGKAIWFSTREETLVYCNGRPYVLRDASTPYQTLALSDRASNLEDIERRLKLDILDEARKYGGMILTHDEITGGTIIPTWVSVDEESIQTPKEVWDDMKRQGWRVDYWRIPIAPDTPIEHNYLDAYVSVLKNADPQTTALVFNCGMGVVRTTFAMCAAMLVRRKQLLLMGLEDPFASVTSSGFSTPSSMMPQAAQFKTQAMLQQALNKSLLKVTRILNRNLPSKHPSTAIDLLTTQPTLLDQLCRAHMGSYQIVLSLLSSLDQGKPMKQLVDAVIDSCDAVINLRENVMEERIKYSVAAMEDKKRQSHLEKALRSLEQYFDLIVFAAYVDEEDAGTTGVSFSTFLKSRPEIWNQIKVLRRSGGNRLFAFAPVNDLSIISRCSEMDDRLDIHREVDLQGGKVLGDEWAEHVVTNRNGIMLRANTLLKSDLWLTESASSNEGVRGAIGFRQIKGSTIYATGQPTQDAISTILSTVHERWPNIESVIWVCLREEPLVMINGSPYCLRRDSIALRNMRDYSGVSSSRLEMLEQRLKSDVITEIEQFQGRVLLHTETADGQVMPVWEIADKQDVASLREVMDDAAATSKDVYLNFVRIPVTSESSPDFHDITELLNLCMRSNLSSSAIILNDQLGRGRSSTTAVIVFLIQRWLKEGRNQKTQNPRTPSRSRPPMLRKSTTASGSARTSWQIINSCLRVIRNGLDVKQVVDEAIDATATQFNVRKAIEDLYVEAQEATEPDRKRKLTELGLHHLKRYYHLLLFAAYLDDRAPEEEDPYSFESFVKHRPVFKTLEKELEAGGLESLAPIEKMEPADGMALPDEVTQVVANRSGAILSAQTILKSDFFSGLQKQSLPERVEGAANYRRLPLICEPHHEEDSHVSPHYVYGTGMPSCEGLRNALKKMDAGPDGSRRVVWTSLREEPVLYINSRPHVLRLVDKPLTNVETTGVTAAVVERMEVAMKQDVLKELRQSEGRLLLHDEVETKPGCYEIIPIWETCQESDILTPRELYESVISEGYKVDYMRVAITDEQAPLPVTFQVVVDRVAEGLKQGTDFVFNCQMGRGRTTTGMTVASLIATIASNDSPFDGGFLSDEEEDEEEAVAEATQYLNGEYKTILQLVTVMSHGKEAKRITDRAINLMEGVQNLRKAVYDFKLQVDAAEPGSAKHKTQTTRAINYLYRYGALVVLANFLLEMKEEGIPLEKTDFPAWLDKHREIRTALSRSTLE
[2]
  binding: binds

B5: Allergen (protein, UniProt J9VN13 1-234)
chain: MSGVTQGVKEFFSKSSKPETTEVCTDTAPEVVQEHIRPQERVETAEAVDRERHVHHLQHRLQPVEDKQTLDTKHINTTEPVIAREHKEEMRPEHQEALAKQRNLAQDTRSTGAVEKSGEHVGTALNEHQHHHIHETVQPVVQRETVDPTVVHKTKAVHERVEDAPIVHEVTTLPTISADKYAKNKSSLEGEGEHCSTFEGAPQVAGQSSNVSAENAAPDATSTGGHHSSKTQAL
[2]
  binding: binds

B6: Rho family GTPase–Rho104 (protein, UniProt J9VN71 1-224)
chain: MSSSPNNRAIRRKLVIVGDGAAGKTSLLNVFAVGHFSESYEPTVFDNYVTEIELDGKPVQLALWDTAGQEEYERLRPLSYSKAHVILIAFAVDTPDSLENVTQKWIEEVRSICGKAIPVILVACKTDLRDKAVANGTYSPERFTDHATGQRIADSIGAKGYFETSALQNRNVDAVFEAATRAAVLVRDAGHGGVGATNGSFEGGGRKDWGREKEEKKFGCCVIA
[1]
  binding: binds

B7: Metallothionein (protein, UniProt J9VVZ2 1-86)
chain: MTCSGNPSNCDFCGNTQVDCAMSEVHGCTTQPSNCSVCEGKGCVALKCTGNTDTCPSCKDSFSSCRKAQFSDAEGIEPARRPAPAA
[2]
  binding: binds

B8: Pollen-specific leucine-rich repeat extensin-like protein 1 (protein, UniProt J9VS67 1-177)
chain: MSEKKETQHQEEQQEQKKEPQQEQQEEQPEQEQQEEEQPEQEQQEQEQPEQEQEQPQQEQQQQQPQREQPQPQQELQQQRRSQDSHEPTFNMPPAPGPRTISKNPPRSETARDRALGPLRSHRVPLPNELSELTPEEQPGGSHKDDKHSLSINISLDLLVEVHLTARVKGDITIGLL
[2]
  binding: binds

B9: PH domain-containing protein (CNAG_06928) (protein, UniProt J9VR41 1-1142)
chain: MSVDLSHPDIAAACASISNPADPAAWLLLQYASPPSTTQLPQLLLLDSGPLPVLPAWQHHLQTTHQSILFGYAEIAEKGLVLVYLTPDVGGVKRARAIVHSRAFASLFPDYSAIITISHPSELTEQLIADELALNLPSTTSLPASVPAASTQYVVPGADGLVPDPLSPRGAGMGRDLPSLPFPTSNQQSLQTTQLQTSQLPPLPPLPPSPIPPSPVSKDETGISRVSNVNGMNEAKEVEKGMNLEVGGEHEREGRQENDHGSGFENGNGNRNGNMSTNITTSTRKPVPALSLSPSPPRPPRHSQPRTPPKPQPILLPNSAHLPVAPLDLAPAPATPAQATGGTEERSRKSSTPLSLTSRLKNTFHRSSLKDKDSPTVVPSSPTPTPSSPSFPSSANNAKPDDLGSPISNPNATSTPHSPSTPSAGKFKASSLSKVFGKRKSAGTSTSTPSGSGTWAGPGEGSKLTEEREGQRINEFGRPPQTGEGLQVSSQSTGIDPPVAPASVPIASPSLAAAPTPSPKSPLPHPSEPSVQSGPTDELNSPPAGLEPGLGLATPLPPRGSSLQPHHSPSPLSSPGAPGAQERQTIGTGNAVFPLAGVPLLGPEAPLPLLPPSSPSSHSHRGLDSNLERVGSPYYTPSLMHPSPSFQPQEGKTQNQPYTYPSRLHPHTQTPSHSHPSAAATTLQSPPSRSTSLSSSTPPTTTLATTTMGPAYIPAGTQDAYANAKEGGEEIEAEEGKQRDREREREKERESVLLAYDRPEIESKLDPRQEEGTTEIMEGMEKGLFPHQGEQVSDASAPNPVSLGAPAPAPVDEYDSLSHPSALQSPSPLHPTTPIHATAPHLVEEQTEEAEKETKETPVQTKEAKAEGEDDEQNQKEGEEQRLEREREREMLEAQQLAQWQAAETARWEAEESARLEREQAVRLAAEEQARRDAEEAERFRLEEEERVRAEEEARRQKEAEEEARRRAEEERRRQREREEEENRRVEEEERRKREEERRKEEEERRKREEEEERERKRKEEAEERKRTVRDGLERGKREGGLMLKGSVTVQTCKSLTWRRRYFQLFSHEMQLFKNENDTKPIQIIPLSKSTDISETYEESQVKDSFKISSGDEGEGGEVFFLFTDSAEDKEFVLDGVRLCIG
[2]
  binding: binds

B10: Cytoplasmic protein (CNAG_06905) (protein, UniProt J9VL36 1-287)
chain: MPEQTTISHCCVTGHIHSGNPLGSISIQHGLRTYVSLPSSAHKGGAEGQVGQKQDTIILISDIFGIDLVNSKLIADEWAGQGYKVLLPDFFEGDPIPESLLQSIVPNVRYQAEATALTKAADTAKSAAALGPWLVKHREAVTRPLVEKYVQSVRSDPSTGKIAVVGYCYGARYALLLAQPQSGAKPSVDVVVANHPSFLVLDDVKDINTTPCIILKGDKDDIMSEDDLNKVEQVMKQNLGEKLVVRRFPGAVHGFTIRGDMEDGQEKAQKEQANKDSFDFVAKYFKS
[2]
  binding: binds
